No constants are given. Whether binding was seen depends on the method and setting. Some binding calls cover weakened binding; strength is not graded here.
Columns and labels:
[1] = biological target: fibrinogen (Tisseel, Baxter AG, Vienna) (UniProt P02671); test: ELISA on coated fibrinogen, anti-His6-peroxidase detection
[2] = biological target: fibrinogen (Tisseel, Baxter AG, Vienna) (UniProt P02671); test: SPR, fibrinogen amine-coupled to a gold chip
[3] = biological target: fibrinogen (Tisseel, Baxter AG, Vienna) (UniProt P02671); test: SPR, fibrinogen amine-coupled to a gold chip; fitted association curves

Protein sequences, listed by entry. Tags and fused reporters are not part of them. Lines headed by an entry give the natural chain unless they say otherwise; changes in a name come on top.
UniProt P02671: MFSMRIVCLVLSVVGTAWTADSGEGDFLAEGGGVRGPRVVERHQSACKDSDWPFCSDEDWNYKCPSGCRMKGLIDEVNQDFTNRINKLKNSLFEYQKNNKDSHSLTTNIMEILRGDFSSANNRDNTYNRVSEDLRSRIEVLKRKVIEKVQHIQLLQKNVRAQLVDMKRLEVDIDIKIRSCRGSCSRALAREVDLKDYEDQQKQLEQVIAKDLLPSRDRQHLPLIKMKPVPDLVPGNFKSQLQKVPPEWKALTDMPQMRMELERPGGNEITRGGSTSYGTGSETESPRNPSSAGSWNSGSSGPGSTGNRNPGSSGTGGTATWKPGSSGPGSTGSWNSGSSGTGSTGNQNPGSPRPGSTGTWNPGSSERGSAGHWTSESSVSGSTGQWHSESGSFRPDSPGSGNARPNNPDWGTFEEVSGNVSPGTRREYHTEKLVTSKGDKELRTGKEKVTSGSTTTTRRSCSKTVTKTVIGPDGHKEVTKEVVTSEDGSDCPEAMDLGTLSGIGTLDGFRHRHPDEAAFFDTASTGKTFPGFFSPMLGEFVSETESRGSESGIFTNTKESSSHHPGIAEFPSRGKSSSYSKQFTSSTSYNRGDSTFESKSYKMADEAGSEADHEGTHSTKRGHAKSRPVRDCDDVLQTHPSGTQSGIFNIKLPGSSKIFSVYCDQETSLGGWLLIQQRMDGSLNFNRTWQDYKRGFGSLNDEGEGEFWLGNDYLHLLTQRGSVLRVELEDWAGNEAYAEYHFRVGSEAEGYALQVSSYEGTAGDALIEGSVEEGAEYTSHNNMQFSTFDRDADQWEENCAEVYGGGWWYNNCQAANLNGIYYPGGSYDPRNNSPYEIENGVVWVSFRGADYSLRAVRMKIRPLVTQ
UniProt P09038: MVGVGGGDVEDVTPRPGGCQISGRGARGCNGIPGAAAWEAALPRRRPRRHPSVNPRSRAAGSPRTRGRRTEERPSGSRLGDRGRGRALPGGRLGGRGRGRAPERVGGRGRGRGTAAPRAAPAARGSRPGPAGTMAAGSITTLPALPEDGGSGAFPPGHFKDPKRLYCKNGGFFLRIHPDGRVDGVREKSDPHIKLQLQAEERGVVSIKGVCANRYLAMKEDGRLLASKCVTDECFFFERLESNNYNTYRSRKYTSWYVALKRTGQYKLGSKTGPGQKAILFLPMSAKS

binding [1]: binds
binding [2]: binds
binding [3]: binds
Substance: recombinant full-length human Fibroblast Growth Factor 2 with C-terminal 6x HIS-tag (from UniProt P09038 134-288) (ligand)

From patent US20120316113A1, “FGF BASED FIBRIN BINDING PEPTIDES” (Baxter Healthcare S.A., priority 2011, published 2012)
